Laboratory results as given in patent US10519132B2, “Isocorydine derivatives, preparation method and use thereof” (Lanzhou Institute of Chemical Physics, Chinese Academy of …, priority 2017, dated 2019).
Some results were stated once for a whole list of compounds, not compound by compound.

System: ascites hepatoma H22 induced solid tumor
Experiment: In vivo tumor growth inhibition in mice bearing H22
Set-up: species or system white Kunming mice
Description: 1. Tumor strain and animal for experiments: H22 liver cancer cell strain was provided by Teaching and Research Office, School of Basic Medical Sciences, Lanzhou University/Key Lab of Preclinical Study for New Drugs of Gansu Province, and was passage and preserved by periodically intraperitoneal inoculation. White Kunming mice (18.0-22.0 g) were provided by Lanzhou Veterinary Institute, Chinese Academy of Agriculture.
2. Establishment of tumor models and method of grouping: a third passage of mice which were well grown 7 d after intraperitoneal inoculation of H22 tumor cells were sacrificed by cervical dislocation, and placed and soaked in 75% alcohol for 10 min. After 3 mL of sterile physiological saline was intraperitoneally injected, milky tumor cell ascites was withdrawn from the abdominal cavity, and formulated into a tumor cell suspension with sterile physiological saline, with a cell number of 1.5×10^7 mL^−1. 80 white Kunming mice were taken, and 0.2 mL of the tumor cell suspension was subcutaneously inoculated to the left axilla of each mouse. […]
Method: Modeling was performed by using the method of establishing H22 white mice tumor-bearing model of Example 24. The in vivo tumor growth inhibition activity of COM33 on H22 model mice was measured in an intraperitoneal injection administration manner.

COc1cc(NC(=O)Nc2ccc(Cl)c(C(F)(F)F)c2)c2c(c1O)-c1c(OC)c(OC)cc3c1C(C2)N(C)CC3 (centres unmarked) [Compound 1]
tumor inhibition rate, summary over dosage groups (Example 24, all dosage groups, intraperitoneal): greater than 40%

COc1cc(NC(=O)Nc2ccc(N3CCC(CN)CC3)c(C(F)(F)F)c2)c2c(c1O)-c1c(OC)c(OC)cc3c1[C@H](C2)N(C)CC3 [Compound 17]
tumor inhibition rate, summary over groups (Example 27, intraperitoneal injection): greater than 40%
